Results taken from the supplement of paper PMC12823440, “Inhibitors supercharge kinase turnover through native proteolytic circuits” (Nature, 2025).
Counter-ions that a name gives are not always drawn. The list shows a part of the results. The calls rarely recur for the same compound in another form.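 Kinases were expressed as nanoluciferase fusions in K562 cells and luminescence was read every 4 h between 2 and 18 h as percent of control, DMSO set to 100% and a positive control to 0%. A time point counts as decreased when the signal drops significantly (2 sigma). The hit call is the authors' own, does not follow from the count of time points alone, and its rule is not shown.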

Protein sequences, listed by entry. Tags and fused reporters are not part of them. Lines headed by an entry give the natural chain unless they say otherwise; changes in a name come on top.
UniProt P21860, whole entry: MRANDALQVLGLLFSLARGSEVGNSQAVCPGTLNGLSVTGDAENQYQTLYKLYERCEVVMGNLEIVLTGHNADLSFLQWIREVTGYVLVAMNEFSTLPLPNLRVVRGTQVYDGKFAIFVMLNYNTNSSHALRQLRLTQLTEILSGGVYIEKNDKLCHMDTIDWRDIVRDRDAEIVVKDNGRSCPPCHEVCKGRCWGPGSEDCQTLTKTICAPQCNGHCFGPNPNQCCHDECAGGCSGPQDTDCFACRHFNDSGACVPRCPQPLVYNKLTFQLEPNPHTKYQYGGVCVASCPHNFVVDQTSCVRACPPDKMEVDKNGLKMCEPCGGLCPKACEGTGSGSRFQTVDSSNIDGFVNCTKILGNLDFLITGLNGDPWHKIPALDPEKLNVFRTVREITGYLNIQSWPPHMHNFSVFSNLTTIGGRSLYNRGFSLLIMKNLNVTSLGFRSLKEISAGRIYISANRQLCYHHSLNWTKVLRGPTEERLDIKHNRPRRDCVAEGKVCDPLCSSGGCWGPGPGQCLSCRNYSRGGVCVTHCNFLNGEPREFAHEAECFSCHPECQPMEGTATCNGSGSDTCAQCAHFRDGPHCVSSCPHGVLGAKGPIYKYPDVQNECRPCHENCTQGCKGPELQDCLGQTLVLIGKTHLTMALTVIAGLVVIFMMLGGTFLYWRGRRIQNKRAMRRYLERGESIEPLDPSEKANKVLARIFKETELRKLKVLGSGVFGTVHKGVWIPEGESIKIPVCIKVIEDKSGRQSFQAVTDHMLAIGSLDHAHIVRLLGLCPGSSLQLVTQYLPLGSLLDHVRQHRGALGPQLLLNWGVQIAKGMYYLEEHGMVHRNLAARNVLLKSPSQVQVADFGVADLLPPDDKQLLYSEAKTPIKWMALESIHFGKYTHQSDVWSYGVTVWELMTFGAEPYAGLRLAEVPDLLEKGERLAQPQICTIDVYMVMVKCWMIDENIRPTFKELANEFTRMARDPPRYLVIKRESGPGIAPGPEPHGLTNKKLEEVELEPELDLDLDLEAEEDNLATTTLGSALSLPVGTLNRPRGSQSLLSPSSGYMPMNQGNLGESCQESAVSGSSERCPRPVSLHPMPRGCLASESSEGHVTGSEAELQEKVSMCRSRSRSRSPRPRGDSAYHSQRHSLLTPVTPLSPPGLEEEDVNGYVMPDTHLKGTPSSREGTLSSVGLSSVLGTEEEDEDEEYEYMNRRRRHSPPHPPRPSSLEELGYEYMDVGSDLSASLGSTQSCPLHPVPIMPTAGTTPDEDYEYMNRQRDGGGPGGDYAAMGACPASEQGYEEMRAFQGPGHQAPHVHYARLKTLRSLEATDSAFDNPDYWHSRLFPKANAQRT
UniProt Q15303, whole entry R711C: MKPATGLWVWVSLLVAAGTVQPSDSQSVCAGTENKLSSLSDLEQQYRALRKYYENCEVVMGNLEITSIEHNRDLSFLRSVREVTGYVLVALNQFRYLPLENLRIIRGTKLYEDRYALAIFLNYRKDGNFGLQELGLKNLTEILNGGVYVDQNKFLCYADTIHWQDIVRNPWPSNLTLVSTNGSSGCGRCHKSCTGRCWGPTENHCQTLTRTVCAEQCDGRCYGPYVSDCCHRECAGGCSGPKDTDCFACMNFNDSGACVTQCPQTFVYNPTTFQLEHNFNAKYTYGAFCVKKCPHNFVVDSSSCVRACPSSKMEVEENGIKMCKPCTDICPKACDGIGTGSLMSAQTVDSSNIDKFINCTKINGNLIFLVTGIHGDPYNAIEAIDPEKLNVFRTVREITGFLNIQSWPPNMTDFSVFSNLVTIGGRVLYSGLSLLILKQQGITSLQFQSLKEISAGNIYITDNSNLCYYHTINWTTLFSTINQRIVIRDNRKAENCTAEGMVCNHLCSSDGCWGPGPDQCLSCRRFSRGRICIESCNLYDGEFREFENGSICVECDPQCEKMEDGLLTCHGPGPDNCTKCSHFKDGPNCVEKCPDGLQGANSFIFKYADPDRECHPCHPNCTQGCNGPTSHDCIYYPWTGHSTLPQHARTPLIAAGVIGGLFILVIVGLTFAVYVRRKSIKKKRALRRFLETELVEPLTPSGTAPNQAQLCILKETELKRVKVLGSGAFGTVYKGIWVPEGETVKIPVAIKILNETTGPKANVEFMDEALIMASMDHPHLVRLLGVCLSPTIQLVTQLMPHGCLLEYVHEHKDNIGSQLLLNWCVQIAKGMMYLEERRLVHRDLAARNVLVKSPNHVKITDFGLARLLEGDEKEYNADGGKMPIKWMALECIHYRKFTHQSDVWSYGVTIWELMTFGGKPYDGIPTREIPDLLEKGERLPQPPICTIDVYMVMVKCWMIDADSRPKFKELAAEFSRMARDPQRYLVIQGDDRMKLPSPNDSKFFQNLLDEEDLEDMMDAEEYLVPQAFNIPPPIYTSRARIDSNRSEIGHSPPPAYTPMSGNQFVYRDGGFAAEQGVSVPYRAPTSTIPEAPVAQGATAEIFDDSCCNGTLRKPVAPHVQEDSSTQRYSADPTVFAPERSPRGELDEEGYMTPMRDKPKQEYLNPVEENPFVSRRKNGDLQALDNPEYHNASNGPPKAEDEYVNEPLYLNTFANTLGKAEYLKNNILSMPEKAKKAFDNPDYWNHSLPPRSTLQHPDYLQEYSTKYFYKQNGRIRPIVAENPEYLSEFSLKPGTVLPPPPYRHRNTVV
UniProt O75460: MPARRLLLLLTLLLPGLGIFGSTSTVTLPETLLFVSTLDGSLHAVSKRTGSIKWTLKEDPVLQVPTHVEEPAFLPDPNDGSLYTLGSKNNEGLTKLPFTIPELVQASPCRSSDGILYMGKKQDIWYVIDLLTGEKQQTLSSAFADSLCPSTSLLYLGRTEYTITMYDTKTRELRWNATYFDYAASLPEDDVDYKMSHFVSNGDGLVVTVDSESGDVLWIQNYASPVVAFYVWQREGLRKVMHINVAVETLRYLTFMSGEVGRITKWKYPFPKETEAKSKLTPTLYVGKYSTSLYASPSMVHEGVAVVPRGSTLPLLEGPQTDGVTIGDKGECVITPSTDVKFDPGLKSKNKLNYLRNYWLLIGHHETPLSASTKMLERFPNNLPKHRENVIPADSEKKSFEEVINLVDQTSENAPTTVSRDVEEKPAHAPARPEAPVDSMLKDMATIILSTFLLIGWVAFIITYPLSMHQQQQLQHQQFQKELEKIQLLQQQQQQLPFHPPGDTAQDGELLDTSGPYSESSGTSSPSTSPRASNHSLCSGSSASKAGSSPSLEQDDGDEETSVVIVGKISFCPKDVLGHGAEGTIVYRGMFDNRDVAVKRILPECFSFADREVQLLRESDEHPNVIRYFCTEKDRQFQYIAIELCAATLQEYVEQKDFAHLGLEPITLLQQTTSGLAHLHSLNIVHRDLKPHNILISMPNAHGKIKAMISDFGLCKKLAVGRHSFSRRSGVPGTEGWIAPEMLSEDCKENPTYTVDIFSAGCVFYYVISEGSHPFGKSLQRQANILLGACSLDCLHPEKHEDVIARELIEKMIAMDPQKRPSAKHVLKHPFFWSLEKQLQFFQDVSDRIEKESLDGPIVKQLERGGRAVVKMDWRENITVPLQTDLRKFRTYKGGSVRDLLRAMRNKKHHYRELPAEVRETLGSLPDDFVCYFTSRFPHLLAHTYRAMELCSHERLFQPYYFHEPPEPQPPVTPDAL
UniProt P11362, whole entry, looked up: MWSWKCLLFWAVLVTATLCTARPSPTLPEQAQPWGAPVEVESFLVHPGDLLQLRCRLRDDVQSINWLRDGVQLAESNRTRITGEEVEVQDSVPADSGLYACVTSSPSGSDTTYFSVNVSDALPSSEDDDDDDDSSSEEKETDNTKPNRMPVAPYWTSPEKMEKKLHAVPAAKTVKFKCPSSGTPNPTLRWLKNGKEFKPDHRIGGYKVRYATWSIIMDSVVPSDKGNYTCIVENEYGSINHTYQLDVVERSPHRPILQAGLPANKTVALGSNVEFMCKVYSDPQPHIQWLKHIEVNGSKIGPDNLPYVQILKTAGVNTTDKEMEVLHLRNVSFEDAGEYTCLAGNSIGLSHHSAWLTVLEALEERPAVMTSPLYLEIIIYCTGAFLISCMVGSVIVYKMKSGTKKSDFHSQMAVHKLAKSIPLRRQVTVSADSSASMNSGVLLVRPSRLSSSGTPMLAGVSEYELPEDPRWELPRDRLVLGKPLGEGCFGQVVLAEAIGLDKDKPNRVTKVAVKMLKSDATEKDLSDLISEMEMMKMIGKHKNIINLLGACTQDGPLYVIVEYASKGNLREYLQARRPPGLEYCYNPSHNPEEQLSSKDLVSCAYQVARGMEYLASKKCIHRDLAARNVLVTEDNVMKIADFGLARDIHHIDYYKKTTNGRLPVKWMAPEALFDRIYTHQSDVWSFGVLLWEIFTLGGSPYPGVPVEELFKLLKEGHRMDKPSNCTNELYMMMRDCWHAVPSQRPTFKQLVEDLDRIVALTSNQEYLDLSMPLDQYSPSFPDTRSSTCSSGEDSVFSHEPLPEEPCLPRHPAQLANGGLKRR
UniProt P21802, whole entry, looked up: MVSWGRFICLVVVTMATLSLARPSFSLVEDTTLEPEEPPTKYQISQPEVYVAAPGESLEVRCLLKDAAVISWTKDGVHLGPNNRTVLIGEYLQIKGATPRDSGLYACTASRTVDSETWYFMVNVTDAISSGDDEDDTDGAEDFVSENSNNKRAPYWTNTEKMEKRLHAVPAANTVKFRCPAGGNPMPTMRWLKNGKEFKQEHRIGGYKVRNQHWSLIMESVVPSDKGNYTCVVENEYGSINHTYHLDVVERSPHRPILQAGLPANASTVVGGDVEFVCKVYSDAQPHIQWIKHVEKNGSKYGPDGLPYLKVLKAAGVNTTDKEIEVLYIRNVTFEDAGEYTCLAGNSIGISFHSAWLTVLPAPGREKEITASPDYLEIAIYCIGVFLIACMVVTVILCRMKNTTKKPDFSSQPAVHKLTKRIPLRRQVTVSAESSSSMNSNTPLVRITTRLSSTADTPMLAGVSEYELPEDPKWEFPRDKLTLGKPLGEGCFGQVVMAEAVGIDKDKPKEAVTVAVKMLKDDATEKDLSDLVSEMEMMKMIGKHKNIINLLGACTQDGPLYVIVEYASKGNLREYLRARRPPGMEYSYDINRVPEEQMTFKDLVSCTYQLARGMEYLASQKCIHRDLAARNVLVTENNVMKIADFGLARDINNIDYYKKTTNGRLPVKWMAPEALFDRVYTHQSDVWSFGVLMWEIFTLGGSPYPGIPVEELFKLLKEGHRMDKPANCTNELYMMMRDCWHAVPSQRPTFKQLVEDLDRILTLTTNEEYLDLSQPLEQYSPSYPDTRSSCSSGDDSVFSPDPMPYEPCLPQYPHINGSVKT
UniProt P22607, whole entry, looked up: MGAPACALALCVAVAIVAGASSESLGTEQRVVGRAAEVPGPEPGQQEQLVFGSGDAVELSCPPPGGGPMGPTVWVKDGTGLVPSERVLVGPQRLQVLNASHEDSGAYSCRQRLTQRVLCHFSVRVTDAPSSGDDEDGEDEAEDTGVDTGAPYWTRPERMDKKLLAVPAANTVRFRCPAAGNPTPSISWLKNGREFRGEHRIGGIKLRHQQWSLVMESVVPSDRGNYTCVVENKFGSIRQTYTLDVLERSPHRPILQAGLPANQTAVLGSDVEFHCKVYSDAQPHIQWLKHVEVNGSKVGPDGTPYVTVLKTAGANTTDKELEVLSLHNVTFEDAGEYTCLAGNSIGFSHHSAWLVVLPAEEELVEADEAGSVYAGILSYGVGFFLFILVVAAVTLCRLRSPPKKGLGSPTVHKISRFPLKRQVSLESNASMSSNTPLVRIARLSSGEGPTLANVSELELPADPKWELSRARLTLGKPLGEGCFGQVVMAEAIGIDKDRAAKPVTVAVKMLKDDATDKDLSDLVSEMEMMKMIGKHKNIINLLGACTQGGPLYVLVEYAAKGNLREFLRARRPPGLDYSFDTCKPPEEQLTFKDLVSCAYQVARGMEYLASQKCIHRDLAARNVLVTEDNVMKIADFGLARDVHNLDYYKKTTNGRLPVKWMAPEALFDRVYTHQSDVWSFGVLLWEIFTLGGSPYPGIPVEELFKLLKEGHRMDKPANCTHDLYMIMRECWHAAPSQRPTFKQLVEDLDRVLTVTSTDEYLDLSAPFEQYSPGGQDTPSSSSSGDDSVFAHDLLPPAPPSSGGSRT

Columns and labels:
Assay in all cases: number of time points (of 5) at which kinase-Nluc abundance scored as decreased, DMSO-normalised (count); higher = more persistent destabilization
Details in all cases: K562; 2-18 h
[1] = molecular target: EGFR_L861Q (UniProt P00533)
[2] = molecular target: EGFR_T790M (UniProt P00533)
[3] = molecular target: EPHA2 (UniProt P29317)
[4] = molecular target: ERBB3 (UniProt P21860)
[5] = molecular target: ERBB4_R711C (clone: ERBB4_mut) (UniProt Q15303)
[6] = molecular target: ERN1 (UniProt O75460)
[7] = molecular target: FGFR1 (UniProt P11362)
[8] = molecular target: FGFR2 (UniProt P21802)
[9] = molecular target: FGFR3 (UniProt P22607)
[10] = molecular target: FGR (UniProt P09769)

| Structure (SMILES) | number of time points [1] | number of time points [2] | number of time points [3] | number of time points [4] | number of time points [5] | number of time points [6] | number of time points [7] | number of time points [8] | number of time points [9] | number of time points [10] |
| --- | --- | --- | --- | --- | --- | --- | --- | --- | --- | --- |
| C=CC(=O)Nc1ccc2[nH]c(=O)n(C3CCN(Cc4ccc(-c5nc6cc[nH]c(=O)c6cc5-c5ccccc5)cc4)CC3)c2c1 [Borussertib] (10 µM) | 0 | 0 | 0 | 0 | 0 | 0 | 0 | 0 | 0 | 0 |
| O=Cc1cn(Cc2ccc(Cl)cc2)c2ccccc12 [Oncrasin-1] (10 µM) | 0 | 0 | 0 | 0 | 0 | 0 | 0 | 0 | 0 | 0 |
| C[C@H](CCC(=O)O)C[C@H](C)C[C@H](C)C(=O)/C=C(\O)[C@H](C)C[C@H](C)C/C=C/[C@@H](C)[C@@H](O)[C@@H](C)[C@@H](O)C[C@@H]1CC[C@@](C)([C@H]2CC[C@@](C)([C@@H](C)O)O2)O1 [Ionomycin (calcium)] (2.5 µM) | 0 | 0 | 5 | 0 | 0 | 2 | 0 | 0 | 0 | 0 |
| CC(C)=CC[C@@H](OC(=O)CC(C)(C)O)C1=CC(=O)c2c(O)ccc(O)c2C1=O [β-Hydroxyisovalerylshikonin] (2.5 µM) | 0 | 0 | 0 | 0 | 0 | 0 | 0 | 0 | 0 | 0 |
| CC(=O)OC(C)(C)/C=C/C(=O)[C@](C)(O)[C@H]1[C@H](O)C[C@@]2(C)[C@@H]3CC=C4[C@@H](C=C(O)C(=O)C4(C)C)[C@]3(C)C(=O)C[C@]12C [Cucurbitacin E] (2.5 µM) | 3 | 1 | 0 | 3 | 4 | 0 | 1 | 3 | 0 | 0 |
| O=C(O)c1nn(Cc2ccc(Cl)cc2Cl)c2ccccc12 [Lonidamine] (10 µM) | 0 | 0 | 0 | 0 | 0 | 0 | 0 | 0 | 0 | 0 |
| CCCCCCCCCCCCCCCCOC[C@H](COP(=O)([O-])OCC[N+](C)(C)C)OC(C)=O (10 µM) | 0 | 0 | 0 | 0 | 0 | 0 | 0 | 0 | 0 | 0 |
| COc1ccc2c(c1)/C(=C/c1cnc[nH]1)C(=O)N2 (2.5 µM) | 0 | 0 | 0 | 0 | 0 |  | 0 | 0 | 0 | 0 |
| C/C(O)=C(\C#N)C(=O)Nc1cc(Br)ccc1Br (10 µM) | 0 | 0 | 0 | 0 | 0 | 0 | 0 | 0 | 0 | 0 |
| CCCCNc1nc(N)c2[nH]c(=O)n(Cc3ccc(C)nc3)c2n1 (10 µM) | 0 | 0 | 0 | 0 | 0 | 0 | 0 | 0 | 0 | 0 |
| O=C1C=CC[C@@H]2[C@H]3CCCN4CCC[C@@H](CN12)[C@@H]34 [Sophocarpine] (10 µM) | 0 | 0 | 0 | 0 | 0 | 0 | 0 | 0 | 0 | 0 |
| O=c1cc(O)c2ccccc2o1 [4-Hydroxycoumarin] (10 µM) | 0 | 0 | 0 | 0 | 0 | 0 | 0 | 0 | 0 | 0 |
| COc1cc2c(cc1F)C(c1ccccc1Cl)=Nc1c(n[nH]c1C)N2 (0.5 µM) |  |  | 0 | 0 | 0 | 0 | 0 | 0 | 0 | 0 |
| O=C1c2ccccc2C(=O)c2c1cccc2-c1cnn(C2CCNCC2)c1 [PDK4-IN-1 (hydrochloride)] (10 µM) | 0 | 0 | 0 | 0 | 0 | 0 | 0 | 0 | 0 | 0 |
| O=c1[nH]c2ccccc2n1C1CCN(Cc2ccc(-c3[nH]c4cc5ncnc5cc4nc3-c3ccccc3)cc2)CC1 [AKT inhibitor VIII] (2.5 µM) | 0 | 0 | 0 | 0 | 0 | 0 | 0 | 0 | 0 | 0 |
| COc1ccc2c(c1)[nH]c1c(C)nccc12 [Harmine] (10 µM) | 0 | 0 | 0 | 0 | 0 | 0 | 0 | 0 | 0 | 0 |
| Cc1ccccc1-n1c(Cn2ncc3c(N)ncnc32)nc2cccc(C)c2c1=O (10 µM) | 0 | 0 | 0 | 0 | 0 | 0 | 0 | 0 | 0 | 0 |
| CC(=O)c1c(O)c(C)c(O)c(Cc2c(O)c3c(c(C(=O)/C=C/c4ccccc4)c2O)OC(C)(C)C=C3)c1O [Rottlerin] (2 µM) | 0 | 0 | 0 | 0 | 0 | 0 | 0 | 0 | 0 | 0 |
| COc1ccc2c(c1OC)C(OC)N(C)c1c-2ccc2cc3c(cc12)OCO3 (stereo not given) [Angoline] (10 µM) | 0 | 0 | 0 | 0 | 0 | 0 | 0 | 0 | 0 | 0 |
| C=C[C@H]1CN2CC[C@]3(C(=O)Nc4ccccc43)[C@@H]2C[C@@H]1/C(=C\OC)C(=O)OC [Corynoxeine] (2 µM) | 0 | 0 | 0 | 0 | 0 | 0 | 0 | 0 | 0 | 0 |
| O=[N+]([O-])/C=C/c1ccc2c(c1)OCO2 (2.5 µM) | 0 | 0 | 0 | 0 | 0 | 0 | 0 | 0 | 0 | 0 |
| CC(=O)O[C@H]1[C@H]2[C@@H](OC(=O)Cc3ccccc3)[C@@H](C)C[C@]2(OC(C)=O)C(=O)/C(C)=C/[C@@H]2[C@H](CC[C@@]13CO3)C2(C)C [Euphorbiasteroid] (10 µM) | 0 | 0 | 0 | 0 | 0 | 0 | 0 | 0 | 0 | 0 |
| N#CC(C#N)=Cc1ccc(O)c(O)c1 [Tyrphostin 23] (10 µM) |  |  | 0 | 0 | 0 | 0 | 0 | 0 | 0 | 0 |
| N#CC(C#N)=NNc1cccc(Cl)c1 (2.5 µM) | 2 | 0 | 0 | 0 | 3 | 0 | 0 | 0 | 0 | 0 |
| C/C=C(/C)C(=O)O[C@H]1[C@@H]2[C@H](C)C(=O)O[C@@H]2C[C@@H](C)[C@@H]2C=CC(=O)[C@]21C [Brevilin A] (2.5 µM) | 0 | 0 | 0 | 0 | 0 | 0 | 0 | 0 | 0 | 0 |
| C[C@H](Nc1ncnc2[nH]cnc12)c1nc2ccc(F)cc2c(=O)n1-c1ccccc1 [Acalisib] (10 µM) | 0 | 0 | 0 | 0 | 0 | 0 | 0 | 0 | 0 | 0 |

Sorted by molecular weight (ascending): some entries from above

| Structure (SMILES) | number of time points [1] | number of time points [2] | number of time points [3] | number of time points [4] | number of time points [5] | number of time points [6] | number of time points [7] | number of time points [8] | number of time points [9] | number of time points [10] |
| --- | --- | --- | --- | --- | --- | --- | --- | --- | --- | --- |
| O=[N+]([O-])/C=C/c1ccc2c(c1)OCO2 (2.5 µM) | 0 | 0 | 0 | 0 | 0 | 0 | 0 | 0 | 0 | 0 |
| O=C1C=CC[C@@H]2[C@H]3CCCN4CCC[C@@H](CN12)[C@@H]34 [Sophocarpine] (10 µM) | 0 | 0 | 0 | 0 | 0 | 0 | 0 | 0 | 0 | 0 |
| CC(=O)OC(C)(C)/C=C/C(=O)[C@](C)(O)[C@H]1[C@H](O)C[C@@]2(C)[C@@H]3CC=C4[C@@H](C=C(O)C(=O)C4(C)C)[C@]3(C)C(=O)C[C@]12C [Cucurbitacin E] (2.5 µM) | 3 | 1 | 0 | 3 | 4 | 0 | 1 | 3 | 0 | 0 |
